Taken from: PubChem BioAssay AID686943 (Drosophila RNAi Screening Center, 2013)
Screen: 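Search across the genome for regulators of signalling from receptor tyrosine kinase to ERK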 (primary screen). System: Drosophila S2R+ haemocyte-like cells expressing YFP-tagged ERK (Rolled). Reagents: long dsRNA against Drosophila genes. Treatment: insulin stimulation versus unstimulated cells; dose and duration not given. Measurement: 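Antibody staining for doubly phosphorylated ERK divided by ERK-YFP signal, as plate z-scores, in insulin-treated and untreated cells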. Reading the numbers: replicate 1, z-score of dpERK with insulin and replicate 2, z-score of dpERK with insulin: higher = more active ERK per ERK-YFP after insulin; replicate 1, z-score of dpERK under basal conditions: higher = more basal active ERK per ERK-YFP; replicate 1, z-score of ERK-YFP with insulin: higher = more YFP-tagged ERK signal.
In all, the deposit lists about 23,000 reagents; this is a random part of those with a known target gene and a result. 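Extra replicates exist only for a retested subset of genes; insulin dose and duration not given; both raised and lowered dpERK matter.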 Not stated in the record: the amount of reagent, the time to read-out.

| gene | DRSC id | replicate 1, z-score of dpERK with insulin | replicate 2, z-score of dpERK with insulin | replicate 1, z-score of dpERK under basal conditions | replicate 1, z-score of ERK-YFP with insulin |
| --- | --- | --- | --- | --- | --- |
| Dpp10 | DRSC00942 | -1.4 | -0.77 | 0.5 | -0.16 |
| Dpp10 | DRSC02139 | 0.45 | 0.36 | 0.79 | 0.46 |
| CG12003 | DRSC08214 | -0.06 | -0.01 | -0.98 | -0.23 |
| Sgs4 | DRSC18715 | 0.53 | 0 | 0.52 | -0.15 |
| lncRNA:CR32368 | DRSC08899 | -0.31 | 0.43 | 1.13 | 0.56 |
| Rpt4R | DRSC10791 | -0.03 | 0.41 | -0.3 | 0.44 |
| mRpS26 | DRSC10823 | -0.98 | -0.38 | -0.63 | 1.75 |
| hmw | DRSC16277 | 0.12 | 1.1 | 1.13 | 0.52 |
| CG9304 | DRSC04538 | -0.88 | -0.44 | 0.7 | -0.19 |
| bur | DRSC03163 | -0.46 | -0.13 | 1.06 | 1.47 |
| DNAlig3 | DRSC15201 | 0.38 | 0.7 | -0.39 | 0.19 |
| Gr97a | DRSC13802 | -0.25 | -0.23 | -0.03 | 0.11 |
| CG31460 | DRSC14370 | -0.83 | -0.5 | -0.36 | -0.86 |
| CG31050 | DRSC13883 | 0.33 | 0.48 | 0.2 | 1.49 |
| sqa | DRSC06693 | 0.21 | -0.16 | 1.21 | 0.01 |
| sqa | DRSC21635 | 0.38 | 0.36 | -1.53 | 1.07 |
| beat-Ic | DRSC01524 | -0.6 | -0.33 | 0 | 0.58 |
| beat-Ic | DRSC03491 | -1.68 | -1.86 | -0.23 | 0.94 |
| CG2157 | DRSC19836 | 0.89 | 0.47 | 1.72 | 0.09 |
| Naa40 | DRSC16265 | 0.67 | -0.13 | 0.47 | 0.44 |
| Rpt2 | DRSC16799 | -6.98 | -5 | -4.21 | 8.05 |
| Mhcl | DRSC13130 | -0.8 | 0.35 | 0.36 | 0.94 |
| Mhcl | DRSC14216 | -0.01 | 0.36 | 0.12 | 0.2 |
| Mhcl | DRSC16753 | -0.51 | 0.48 | 0.3 | 0.69 |
| Art3 | DRSC16065 | 0.08 | -0.02 | 0.41 | -0.19 |
| acj6 | DRSC20304 | 0.43 | 0.57 | -0.25 | 0.04 |
| Noa36 | DRSC16761 | -0.13 | 0.07 | -0.27 | 0.64 |
| Atg8b | DRSC14501 | 1.33 | 0.39 | 1.5 | -0.29 |
| Rpn2 | DRSC16839 | -7.54 | -4.31 | -5.41 | 2.21 |
| CG34193 | DRSC05665 | 0.27 | 0.1 | 0.41 | 0.07 |
| CG1971 | DRSC15406 | 0.93 | 0.19 | 0.1 | 0.25 |
| CG5377 | DRSC15783 | -0.53 | -0.1 | -1.45 | 0 |
| CG12655 | DRSC20678 | 0.87 | 0.35 | 0.08 | 0.3 |
| CG31327 | DRSC13019 | -0.03 | 0.32 | 0.45 | -1.04 |
| Syt7 | DRSC17130 | 0.24 | 0.39 | -0.33 | 0 |
| Syt7 | DRSC17159 | 0.4 | 0.86 | 0.44 | -0.28 |
| CG30039 | DRSC21794 | -0.3 | 0.28 | -0.43 | 0.92 |
| scra | DRSC07679 | -0.86 | 0.88 | 0.69 | -0.17 |
| CG9896 | DRSC03962 | -0.1 | 1.11 | -1.82 | 0.35 |
| CG9896 | DRSC04594 | -0.46 | -0.08 | 1.42 | 0.3 |
